About 1,800 (2.3%) of roughly 78,000 compounds were called active. Inconclusive means that the source gave no clear call. Such entries were picked first, then a sample of the others. Rule as the data show it: active = inhibition above about 30%; inconclusive = mostly about 10% to 28%; inactive = weaker than that. Some compounds were tested as several samples or in several runs, with calls that do not always agree.
The molecules below were run against Interleukin-1 receptor-like 1 (Homo sapiens) (UniProt Q01638) (assay: blocks human ST2 binding to IL-33, primary screen, biochemical, AlphaLISA (AID 1259354)). Details: AlphaLISA ST2-Fc/biotin-IL-33 interaction, 1 h; at 17 µM, hits give high values.

Amino acid sequences for entries named in this document (tags omitted). A change or cut given only in a name is not applied to a line headed by its entry.
UniProt Q01638: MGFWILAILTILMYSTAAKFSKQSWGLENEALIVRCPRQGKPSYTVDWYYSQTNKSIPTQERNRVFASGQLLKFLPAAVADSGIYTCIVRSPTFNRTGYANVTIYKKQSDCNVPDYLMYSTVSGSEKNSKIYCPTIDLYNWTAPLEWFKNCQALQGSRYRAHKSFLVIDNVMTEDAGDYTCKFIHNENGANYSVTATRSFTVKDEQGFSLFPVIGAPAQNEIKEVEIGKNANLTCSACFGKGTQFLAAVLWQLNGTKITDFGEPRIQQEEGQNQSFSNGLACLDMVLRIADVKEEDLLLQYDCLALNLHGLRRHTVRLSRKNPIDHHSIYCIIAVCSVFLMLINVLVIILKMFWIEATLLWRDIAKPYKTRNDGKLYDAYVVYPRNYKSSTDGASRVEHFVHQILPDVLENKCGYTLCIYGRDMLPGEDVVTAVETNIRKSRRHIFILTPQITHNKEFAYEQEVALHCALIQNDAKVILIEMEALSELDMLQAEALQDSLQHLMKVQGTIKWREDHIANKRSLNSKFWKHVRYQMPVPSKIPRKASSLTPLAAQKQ

Row | SMILES | inhibition
1 | O=C(c1ccc[nH]c1=O)N(Cc1ccsc1)CC1CCCO1 (configuration not stated) | inactive
2 | CCCCOC(=O)c1ccc(OC(=O)c2cc3ccccc3oc2=O)cc1 | inactive
3 | CC[C@H]1CN(S(=O)(=O)c2c(C)noc2C)CC[C@H]1CC(=O)N(C)CC#N | inconclusive: 16%
4 | Cc1cnccc1NCCNC(=O)c1cn(Cc2ccc(F)cc2)nn1 | inactive
5 | Cc1ccc(C2c3sc(=O)[nH]c3SC3C(=O)NC(=O)C32)cc1 (configuration not stated) | inconclusive: 24%
6 | Cn1c(NCc2c(O)ccc3ccccc23)nc2ccccc21 | inconclusive: 13%
7 | COc1ccccc1CCN1CCC(CN(C)C(=O)c2ccsc2)CC1 | inconclusive: 17%
8 | COc1ccc(Cn2c(NCCO)nc3c2c(=O)n(C)c(=O)n3C)cc1 | inconclusive: 15%
9 | CC(=O)Nc1ccc(C(=O)Nc2ccccc2C)cc1 | inconclusive: 14%
10 | O=C(O)c1ccccc1NC(=O)C1CC1 | inactive
11 | Cc1ccsc1C(=O)N1CCC(Cn2cc(CN3CC[C@@H](N)C3)nn2)CC1 | inconclusive: 17%
12 | CNC(=O)c1cccc(S(=O)(=O)NC(C)C2=CCCN(C)C2)c1 (configuration not stated) | inconclusive: 14%
13 | CCOC(=O)C1=C(C)N=C2SCCC(=O)N2C1c1ccc(OCC)c(OCC)c1 (configuration not stated) | inactive
14 | Cc1nnc(Nc2ccc(Cl)c(Cl)c2)[nH]c1=O | inconclusive: 10%
15 | COc1ccc(N=Cc2cc(Br)cc(Cl)c2O)cc1OC | inconclusive: 12%
16 | NC(=O)[C@H](CC1CCCCC1)NC(=O)[C@@H]1CN(C(=O)Nc2ccccc2)CCN1C(=O)NC1CCCCC1 | inactive
17 | CN(C)S(=O)(=O)N1CCC(Oc2ccc(C(=O)NCCc3ccncc3)cc2)CC1 | inconclusive: 16%
18 | COc1cccc(C(=O)Nc2cccc3cccnc23)c1 | inconclusive: 15%
19 | O=C(Nc1ccc(-c2nc3cccnc3o2)cc1)c1cccc(Cl)c1Cl | inconclusive: 24%
20 | COc1ccc(C(=O)N2CCCC(CNC(=O)c3ccc(-c4ccccc4)cc3)C2)o1 (configuration not stated) | inactive
21 | Cc1ccc(CN2CC[C@H](c3nnc(-c4ccccc4F)o3)C2)o1 | inconclusive: 10%
22 | COc1ccc2nc(CCn3cnnc3)[nH]c2c1 | inactive
23 | Cc1cc2nc(SCCOC(=O)CN3C(=O)c4ccccc4C3=O)nc(C)c2cc1C | inactive
24 | O=c1[nH]c2ccc(S(=O)(=O)Nc3ccc(Cl)c(Cl)c3)cc2o1 | inactive
25 | Cn1c(=O)c2c(SCc3ccccc3F)nc(-c3ccc(F)cc3)nc2n(C)c1=O | inconclusive: 14%

Row | SMILES | inhibition
26 | COc1ccccc1-n1c(=O)c2c3c(sc2n2cnnc12)CCC3 | inactive
27 | Cc1ccc(C(O)=C2C(=O)C(=O)N(c3ccccn3)C2c2ccc(Cl)cc2)cc1 (configuration not stated) | inactive
28 | CCN(C)c1ccc(/C=C/c2nc(O)c([N+](=O)[O-])c(=O)[nH]2)cc1 | inconclusive: 12%
29 | O=S(=O)(c1cccs1)N1CCCC(C(F)(F)F)C1 (configuration not stated) | inconclusive: 15%
30 | O=C(Cn1c(NCCO)nc2ccccc21)c1ccc(Cl)c(Cl)c1 | inconclusive: 12%
31 | COc1ccc(N2CCN(C(=O)C(NS(=O)(=O)c3cccs3)C(C)C)CC2)cc1 (configuration not stated) | inconclusive: 15%
32 | CN(C)c1ccc(C2Nc3ccc4ncccc4c3C3=C2C(=O)CCC3)cc1 (configuration not stated) | inconclusive: 18%
33 | COc1ccc(-n2ccnc2CN2CCC3(CC2)CN(C)CCN3C)cc1 | inconclusive: 11%
34 | CCOC(=O)C1=NN(c2ccccc2)C2C(=O)N(c3ccc(C)cc3)C(=O)C12 (configuration not stated) | inactive
35 | COc1ccc(-c2cccc(-n3cccn3)c2)cc1C(N)=O | inactive
36 | COc1cc2c(cc1OC)C(C(=O)Nc1ccc(F)c(Cl)c1)C(c1cccs1)N(C)C2=O (configuration not stated) | inactive
37 | CCOC(=O)CSc1nc2c(c(=O)n1-c1ccc(C)cc1)SCC2 | inactive
38 | O=C1Nc2ccc(I)cc2C1=Cc1cc(Br)c(O)c(Br)c1 | inconclusive: 12%
39 | O=C1NC(=Nc2ccccc2)S/C1=C/c1cc(Br)cc(Cl)c1O | inconclusive: 17%
40 | O=C(CSc1nnc2c3ccccc3n(CCc3ccccc3)c2n1)N1CCOCC1 | active: 33%
41 | Cc1ccc(C(=O)Nc2ccc3c(c2)OCO3)cc1 | active: 30%
42 | O=C(Cn1nc(-c2ccccc2)ccc1=O)N1CCOCC1 | inconclusive: 20%
43 | O=C(NCCC1CCCCO1)c1cc(COc2ccc3c(c2)OCO3)[nH]n1 (configuration not stated) | inconclusive: 13%
44 | CC(C)c1ccc(N(C(=O)c2ccc(Br)cc2)C2C=CS(=O)(=O)C2)cc1 (configuration not stated) | inconclusive: 12%
45 | CCc1nc(NCCCO)c(C#N)c2c1CCCC2 | inconclusive: 11%
46 | CCOc1cc(/C=C2/SC(=Nc3ccccc3)NC2=O)ccc1OC | inactive
47 | Cc1cc(Cl)ccc1NS(=O)(=O)c1ccc([N+](=O)[O-])cc1 | inconclusive: 15%
48 | Cc1[nH]nc(SCC(=O)N2CCN(Cc3ccccc3)CC2)c1[N+](=O)[O-] | inconclusive: 10%
49 | CCOc1ccc(CN2CCCn3cncc3C2)cc1CO | inactive
50 | COc1ccc(OC)c(N2C(=O)C3C4CCC(C4)C3C2=O)c1 (configuration not stated) | inconclusive: 19%

3 neighbouring records out of the list so far, for reference:
Row | SMILES | inhibition
26 | COc1ccccc1-n1c(=O)c2c3c(sc2n2cnnc12)CCC3 | inactive
27 | Cc1ccc(C(O)=C2C(=O)C(=O)N(c3ccccn3)C2c2ccc(Cl)cc2)cc1 (configuration not stated) | inactive
28 | CCN(C)c1ccc(/C=C/c2nc(O)c([N+](=O)[O-])c(=O)[nH]2)cc1 | inconclusive: 12%

Continued:

Row | SMILES | inhibition
51 | NNC(=O)c1ccc(C(=O)O)cc1 | inconclusive: 13%
52 | CC[C@H]1CN(C(=O)c2ccnc(Cl)c2)CC[C@H]1CC(=O)NCc1cccnc1 | inconclusive: 22%
53 | CCCS(=O)(=O)NCC1CCN(C2CC(C)(C)NC(C)(C)C2)C1 (configuration not stated) | inconclusive: 17%
54 | NC(=O)c1cc2cc(Br)ccc2oc1=Nc1ccccc1 | active: 33%
55 | CN1CCCN(Cc2ccsc2)CC1 | inactive
56 | CC(C)(NC(=O)c1cccs1)C(=O)N1CCCC1c1ccccn1 (configuration not stated) | inconclusive: 10%
57 | COc1ccc(CNC(=O)C[C@@H]2O[C@H](CNC(=O)c3ccco3)[C@@H](O)[C@H]2O)cc1 | inactive
58 | O=C1OC(Nc2ccc(S(=O)(=O)Nc3nccs3)cc2)c2ccccc21 (configuration not stated) | inactive
59 | C#CCOc1c(I)cc(/C=C2/NC(=O)NC2=O)cc1OC | inconclusive: 15%
60 | CC(=O)C1=C(O)C(=O)N(CCN2CCOCC2)C1c1ccc(Cl)cc1Cl (configuration not stated) | inactive
61 | O=C(Nc1cccc(C(=O)Nc2ccccc2Cl)c1)c1ccc([N+](=O)[O-])cc1 | inactive
62 | Cc1ccc(-c2noc(CCC(=O)N3CCN(C)CC3)n2)cc1 | inactive
63 | Cc1ccc(-n2c(SCC(=O)Nc3cccc(C)c3C)nc3c(c2=O)SCC3)cc1 | inconclusive: 11%
64 | CC1=NN(c2cccc(Cl)c2)C(=O)/C1=C\c1ccc(C)cc1 | active: 30%
65 | O=C(OCCN1CCOCC1)c1ccc(O)c(O)c1 | inconclusive: 26%
66 | COc1ccc(C2C(C#N)=C(N)OC3=C2C(=O)CC(c2ccc(C)cc2)C3)cc1 (configuration not stated) | inactive
67 | COc1ccc(CN2CCC3(CCC(CNC(=O)c4cccnc4)O3)CC2)c2ccccc12 (configuration not stated) | inconclusive: 14%
68 | O=C(CSc1nc2ccccc2s1)c1ccccc1[N+](=O)[O-] | active: 33%
69 | Cc1ccccc1NC(=O)C1Cc2ccccc2C(=O)O1 (configuration not stated) | inconclusive: 10%
70 | O=C(NC[C@H]1O[C@@H](CO)[C@@H](O)[C@H]1N1CCN(c2ncccn2)CC1)N1CCOCC1 | inactive
71 | CC1CCCC(C)N1CCNC(=O)C1CCN(S(C)(=O)=O)CC1 (configuration not stated) | inconclusive: 12%
72 | CCOc1ccc(C2CC(c3ccccc3)n3nc(N)nc3N2)cc1 (configuration not stated) | inactive
73 | CCOc1ccc(Cl)cc1-c1nc2sc3c(c2c(=O)[nH]1)CCCC3 | inconclusive: 14%
74 | O[C@H]1C[C@@H]2CN(Cc3cccc(Oc4ccccc4)c3)C[C@@H]2C[C@@H]1O | inconclusive: 12%
75 | Cc1nn(-c2ccccc2)c(N)c1-c1ccc(S(C)(=O)=O)cc1 | inconclusive: 17%

Row | SMILES | inhibition
76 | CN(C)c1nc2c(c(=O)[nH]1)CCN(C(=O)CC1NC(=O)c3ccccc31)C2 (configuration not stated) | inactive
77 | COc1cc(O)c2c(=O)cc(-c3ccccc3)oc2c1 | inconclusive: 10%
78 | COc1ccc(CNS(=O)(=O)c2cccc3cccnc23)cc1 | inactive
79 | Cc1ccc(-c2cnc3ccccc3n2)c(C)c1 | inconclusive: 25%
80 | O=C(c1ccncc1)N1CCC2(CCCN(CCCc3ccccc3)C2)C1 (configuration not stated) | inconclusive: 17%
81 | O=C1C2C3CCC(C3)C2C(=O)N1c1cc(Cl)ccc1O (configuration not stated) | inconclusive: 11%
82 | CSc1ncccc1C(=O)N[C@H]1C[C@H]2C(=O)NCC(=O)N2C1 | inconclusive: 20%
83 | COc1ccc(/C=c2\sc3n(c2=O)CN(c2ccc4c(c2)OCO4)CN=3)cc1 | active: 31%
84 | COC(=O)C[C@@H]1CCNC[C@@H]1CC1=NCCc2cc(OC)c(OC)cc21 | inconclusive: 16%
85 | CC1(C)C(C=C(Cl)Cl)C1C(=O)Nc1ccc([N+](=O)[O-])cc1 (configuration not stated) | inconclusive: 11%
86 | CC(C)(C)c1oc(C(N)=O)cc1CN1CCC(N2CCCC2=O)CC1 | inconclusive: 18%
87 | O=C1CCCc2oc3c(Cl)cc(NS(=O)(=O)c4cccs4)cc3c21 | inconclusive: 18%
88 | O=C(NCc1nc2ccccc2[nH]1)c1cccs1 | inconclusive: 16%
89 | CCn1cc(CN2CCOc3ccc(C4(O)CCN(c5ccccc5F)CC4)cc3C2)c(C)n1 | inactive
90 | Cc1ccc(OCC(O)CNC(N)=O)cc1 (configuration not stated) | inactive
91 | O=C1CC(N2CCN(Cc3ccc4c(c3)OCO4)CC2)C(=O)N1c1cccc(C(F)(F)F)c1 (configuration not stated) | inconclusive: 15%
92 | Cc1c(C(=O)NCc2ccc3c(c2)OCO3)sc2ncn(C)c(=O)c12 | inactive
93 | Cc1ccc(-c2csc(NC3OC(=O)c4ccccc43)n2)c(C)c1 (configuration not stated) | inconclusive: 17%
94 | Cc1ccc(NC(=O)c2nn(C)cc2Br)c(C)c1 | inconclusive: 16%
95 | CC(C)Oc1cccc(C(=O)Nc2ccc(-c3nc4ncccc4o3)cc2)c1 | active: 32%
96 | CCN(Cc1nc(COC)no1)C(=O)c1cc(-c2ccccc2)nn1C | inconclusive: 22%
97 | Cc1cccc(Oc2coc3cc(O)ccc3c2=O)c1 | inconclusive: 13%

Exported with each value named: 4 of the compounds above.
Cc1ccc(OCC(O)CNC(N)=O)cc1 (configuration not stated)
  inhibition: inactive
O=C1CC(N2CCN(Cc3ccc4c(c3)OCO4)CC2)C(=O)N1c1cccc(C(F)(F)F)c1 (configuration not stated)
  inhibition: inconclusive: 15%
Cc1c(C(=O)NCc2ccc3c(c2)OCO3)sc2ncn(C)c(=O)c12
  inhibition: inactive
Cc1ccc(-c2csc(NC3OC(=O)c4ccccc43)n2)c(C)c1 (configuration not stated)
  inhibition: inconclusive: 17%

— PubChem BioAssay AID1259354 (Paczesny and Yang Labs, IUPUI and University of Michigan, 2018)
